# Measured values from the supplement of paper PMC8728848.
# The list shows a part of the results.
# Tests used:
# Experiment in all cases: glycan array binding signal (z-score within array); higher = stronger binding
# Conditions in all cases: glycan notation: IUPAC condensed, linker removed
# [1] = target: GalNAc(b1-4)GlcNAc
# Summary of the method: (§1)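 Columns mapping to the same glycan were averaged after glycan names were converted to IUPAC-condensed notation. The data come from 3228 arrays in the Consortium for Functional Glycomics database, limited to those with an available protein sequence. Binding is reported as a within-array Z-score averaged across arrays of one protein sequence and across linkers.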
# [2] = target: GalNAc(b1-4)GlcNAc(b1-2)Man
# Summary of the method: as §1
# [3] = target: GalNAc(b1-4)GlcNAc(b1-2)Man(a1-3)[GalNAc(b1-4)GlcNAc(b1-2)Man(a1-6)]Man(b1-4)GlcNAc(b1-4)GlcNAc
# Summary of the method: as §1
# [4] = target: GalNAc(b1-4)GlcNAc(b1-3)GalNAc(b1-4)GlcNAc
# Summary of the method: as §1
# [5] = target: GalNAc(b1-4)GlcNAc6S
# Summary of the method: as §1
# [6] = target: GalNAc(b1-6)GalNAc
# Summary of the method: as §1
# [7] = target: GalNAc3S(b1-4)GlcNAc
# Summary of the method: as §1
# [8] = target: GalNAc3S(b1-4)GlcNAc3S
# Summary of the method: as §1
# [9] = target: GalNAc3S(b1-4)[Fuc(a1-3)]GlcNAc
# Summary of the method: as §1
# [10] = target: GalNAc4S6S(b1-4)GlcNAc
# Summary of the method: as §1
# [11] = target: GalNAc6S(b1-4)GlcNAc
# Summary of the method: as §1
# [12] = target: Glc(a1-4)Glc
# Summary of the method: as §1
# [13] = target: Glc(a1-4)Glc(a1-4)Glc(a1-4)Glc
# Summary of the method: as §1
# [14] = target: Glc(a1-6)Glc(a1-6)Glc
# Summary of the method: as §1
# [15] = target: Glc(a1-6)Glc(a1-6)Glc(a1-6)Glc
# Summary of the method: as §1
# [16] = target: Glc(b1-4)Glc
# Summary of the method: as §1
# [17] = target: Glc(b1-6)Glc
# Summary of the method: as §1
# [18] = target: GlcA(b1-3)Gal
# Summary of the method: as §1
# [19] = target: GlcA(b1-3)GlcNAc
# Summary of the method: as §1
# [20] = target: GlcA(b1-6)Gal
# Summary of the method: as §1
# [21] = target: GlcA3S(b1-3)Gal(b1-4)GlcNAc(b1-2)Man
# Summary of the method: as §1
# [22] = target: GlcA3S(b1-3)Gal(b1-4)GlcNAc(b1-3)Gal(b1-4)Glc
# Summary of the method: as §1
# [23] = target: GlcNAc(a1-3)Gal(b1-4)GlcNAc
# Summary of the method: as §1
# [24] = target: GlcNAc(a1-4)Gal(b1-3)GlcNAc
# Summary of the method: as §1
# [25] = target: GlcNAc(a1-4)Gal(b1-4)GalNAc
# Summary of the method: as §1
# [26] = target: GlcNAc(a1-4)Gal(b1-4)GlcNAc
# Summary of the method: as §1
# [27] = target: GlcNAc(a1-4)Gal(b1-4)GlcNAc(b1-3)Gal(b1-4)Glc
# Summary of the method: as §1
# [28] = target: GlcNAc(a1-4)Gal(b1-4)GlcNAc(b1-3)Gal(b1-4)GlcNAc
# Summary of the method: as §1
# [29] = target: GlcNAc(a1-4)Gal(b1-4)GlcNAc(b1-3)Gal(b1-4)GlcNAc(b1-3)Gal(b1-4)GlcNAc
# Summary of the method: as §1
# [30] = target: GlcNAc(a1-4)Gal(b1-4)GlcNAc(b1-3)Gal(b1-4)[Fuc(a1-3)]GlcNAc(b1-3)Gal(b1-4)[Fuc(a1-3)]GlcNAc
# Summary of the method: as §1
binder,measurement,setting,value
"SHCBP1-GST (Homo sapiens), Q8NEM2 (protein) MADGSLTGGGLEAAAMAPERMGWAVEQELASLEKGLFQDEDSCSDCSYRDKPGSSLQSFMPEGKTFFPEIFQTNQLLFYERFRAYQDYILADCKASEVQEFTAEFLEKVLEPSGWRAVWHTNVFKVLVEITDVDFAALKAVVRLAEPYLCDSQVSTFTMECMKELLDLKEHRLPLQELWVVFDDSGVFDQTALAIEHVRFFYQNIWRSWDEEEEDEYDYFVRCVEPRLRLHYDILEDRVPSGLIVDYHNLLSQCEESYRKFLNLRSSLSNCNSDSEQENISMVEGLKLYSEMEQLKQKLKLIENPLLRYVFGYQKNSNIQAKGVRSSGQKITHVVSSTMMAGLLRSLLTDRLCQEPGEEEREIQFHSDPLSAINACFEGDTVIVCPGHYVVHGTFSIADSIELEGYGLPDDIVIEKRGKGDTFVDCTGADIKISGIKFVQHDAVEGILIVHRGKTTLENCVLQCETTGVTVRTSAEFLMKNSDLYGAKGAGIEIYPGSQCTLSDNGIHHCKEGILIKDFLDEHYDIPKISMVNNIIHNNEGYGVVLVKPTIFSDLQENAEDGTEENKALKIQTSGEPDVAERVDLEELIECATGKMELCARTDPSEQVEGNCEIVNELIAASTQKGQIKKKRLSELGITQADDNLMSQEMFVGIVGNQFKWNGKGSFGTFLF",glycan array binding signal (z-score),[1],-0.137
same,glycan array binding signal (z-score),[2],-0.09
same,glycan array binding signal (z-score),[3],2.96
same,glycan array binding signal (z-score),[4],-0.059
same,glycan array binding signal (z-score),[5],-0.496
same,glycan array binding signal (z-score),[6],0.273
same,glycan array binding signal (z-score),[7],-0.101
same,glycan array binding signal (z-score),[8],-0.53
same,glycan array binding signal (z-score),[9],-0.082
same,glycan array binding signal (z-score),[10],-0.663
same,glycan array binding signal (z-score),[11],-0.066
same,glycan array binding signal (z-score),[12],0.427
same,glycan array binding signal (z-score),[13],-0.15
same,glycan array binding signal (z-score),[14],-0.548
same,glycan array binding signal (z-score),[15],0.181
same,glycan array binding signal (z-score),[16],0.043
same,glycan array binding signal (z-score),[17],-0.297
same,glycan array binding signal (z-score),[18],-0.172
same,glycan array binding signal (z-score),[19],-0.744
same,glycan array binding signal (z-score),[20],-0.457
same,glycan array binding signal (z-score),[21],-0.147
same,glycan array binding signal (z-score),[22],-0.5
same,glycan array binding signal (z-score),[23],-0.189
same,glycan array binding signal (z-score),[24],-0.213
same,glycan array binding signal (z-score),[25],0.552
same,glycan array binding signal (z-score),[26],0.045
same,glycan array binding signal (z-score),[27],-0.361
same,glycan array binding signal (z-score),[28],0.084
same,glycan array binding signal (z-score),[29],-0.634
same,glycan array binding signal (z-score),[30],2.67

# Rewritten with bars between the fields: entries from further up
binder | measurement | setting | value
SHCBP1-GST (Homo sapiens), Q8NEM2 (protein) MADGSLTGGGLEAAAMAPERMGWAVEQELASLEKGLFQDEDSCSDCSYRDKPGSSLQSFMPEGKTFFPEIFQTNQLLFYERFRAYQDYILADCKASEVQEFTAEFLEKVLEPSGWRAVWHTNVFKVLVEITDVDFAALKAVVRLAEPYLCDSQVSTFTMECMKELLDLKEHRLPLQELWVVFDDSGVFDQTALAIEHVRFFYQNIWRSWDEEEEDEYDYFVRCVEPRLRLHYDILEDRVPSGLIVDYHNLLSQCEESYRKFLNLRSSLSNCNSDSEQENISMVEGLKLYSEMEQLKQKLKLIENPLLRYVFGYQKNSNIQAKGVRSSGQKITHVVSSTMMAGLLRSLLTDRLCQEPGEEEREIQFHSDPLSAINACFEGDTVIVCPGHYVVHGTFSIADSIELEGYGLPDDIVIEKRGKGDTFVDCTGADIKISGIKFVQHDAVEGILIVHRGKTTLENCVLQCETTGVTVRTSAEFLMKNSDLYGAKGAGIEIYPGSQCTLSDNGIHHCKEGILIKDFLDEHYDIPKISMVNNIIHNNEGYGVVLVKPTIFSDLQENAEDGTEENKALKIQTSGEPDVAERVDLEELIECATGKMELCARTDPSEQVEGNCEIVNELIAASTQKGQIKKKRLSELGITQADDNLMSQEMFVGIVGNQFKWNGKGSFGTFLF | glycan array binding signal (z-score) | [18] | -0.172
same | glycan array binding signal (z-score) | [19] | -0.744
